Test results: paper PMC3160902
These are yes or no findings as the source states them, for the method shown. Some entries that bind do so weakly or less than the wild type. Tags and fused reporters may be left off the sequences shown.

Chains of the proteins cited; added tags and fusions are not shown.
UniProt P49841: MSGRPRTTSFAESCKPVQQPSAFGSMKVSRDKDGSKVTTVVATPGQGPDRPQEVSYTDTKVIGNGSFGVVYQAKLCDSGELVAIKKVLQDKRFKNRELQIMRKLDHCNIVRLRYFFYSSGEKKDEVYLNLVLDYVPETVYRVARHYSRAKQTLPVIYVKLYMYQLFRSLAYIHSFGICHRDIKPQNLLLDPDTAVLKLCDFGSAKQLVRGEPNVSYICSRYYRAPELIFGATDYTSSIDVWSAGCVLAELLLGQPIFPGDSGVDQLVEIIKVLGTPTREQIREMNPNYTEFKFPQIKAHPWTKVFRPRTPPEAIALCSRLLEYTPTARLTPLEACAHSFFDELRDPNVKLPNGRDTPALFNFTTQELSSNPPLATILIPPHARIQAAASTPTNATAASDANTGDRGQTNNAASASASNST

What was measured:
[1] = target: T1, GST-LRP6C, unphosphorylated (human) (UniProt O75581); assay: pull-down; GST, GST-LRP5C or GST-LRP6C on glutathione beads, with recombinant GSK3 (250 units) and CKI (500 units) in the in vitro phosphorylation reaction with or without ATP; washed 4x in high salt (50 mM HEPES pH 7.4, 500 mM NaCl, 1.5 mM EDTA, 1% Triton X-100, 10% glycerol); retained GSK3 detected by immunoblot; both purified
T1 sequence: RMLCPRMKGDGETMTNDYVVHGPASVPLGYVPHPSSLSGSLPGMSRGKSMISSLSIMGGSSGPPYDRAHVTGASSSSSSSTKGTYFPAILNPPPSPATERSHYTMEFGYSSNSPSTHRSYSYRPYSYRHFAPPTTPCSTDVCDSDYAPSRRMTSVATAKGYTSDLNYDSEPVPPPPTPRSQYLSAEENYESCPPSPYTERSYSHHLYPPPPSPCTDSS

[2] = target: T2, GST-LRP5C, unphosphorylated (human) (UniProt O75197); assay: as above
T2 sequence: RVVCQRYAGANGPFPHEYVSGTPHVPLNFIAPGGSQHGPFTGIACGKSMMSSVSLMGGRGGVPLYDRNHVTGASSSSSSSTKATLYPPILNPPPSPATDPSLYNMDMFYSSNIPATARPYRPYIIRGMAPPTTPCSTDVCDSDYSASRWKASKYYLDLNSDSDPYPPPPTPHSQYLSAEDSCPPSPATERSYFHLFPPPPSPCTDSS

binding [1]: binds
binding [2]: binds
Substance: Recombinant GSK3 (GSK3β: P6040, NEB) (from UniProt P49841 1-420) (enzyme)
